Data reported in patent US20250283871A1, “COMPOSITIONS AND METHODS FOR MODULATING THE INTERACTION BETWEEN SS18-SSX FUSION ONCOPROTEIN AND NUCLEOSOMES” (Dana-Farber Cancer Institute, Inc., priority 2020, published 2025).

Tested on: BAF complex subunits and histone proteins
Test: Mass spectrometry proteomics of purified HA-SS18 WT and HA-SS18-SSX1 complexes (Tables 5A-5E)
Set-up: species or system human
Settings: HEK-293T
[1] = HA-SS18SSX1_CHR_peptides: proteins found in HA-SS18-SSX1 BAF complex purification from solubilized chromatin (CHR)
[2] = HA-SS18SSX1 purification, NE (soluble nuclear extract) fraction, peptides per identified protein
[3] = HA-SS18WT_CHR_peptides: protein identified in HA-SS18 WT BAF complex purification from nuclease-treated solubilized chromatin (CHR)
[4] = HA-SS18WT_NE_peptides: proteins co-purified with HA-SS18 WT from nuclear extract (NE)
[5] = HA-SS18WT_NE_peptides: HA-SS18 WT complexes purified from nuclear extract (NE), label = protein identified (Gene Symbol)

B1: KIF20A (protein, UniProt O95235 2-890, looked up)
Kinesin-like protein KIF20A: SQGILSPPAGLLSDDDVVVSPMFESTAADLGSVVRKNLLSDCSVVSTSLEDKQQVPSEDSMEKVKVYLRVRPLLPSELERQEDQGCVRIENVETLVLQAPKDSFALKSNERGIGQATHRFTFSQIFGPEVGQASFFNLTVKEMVKDVLKGQNWLIYTYGVTNSGKTHTIQGTIKDGGILPRSLALIFNSLQGQLHPTPDLKPLLSNEVIWLDSKQIRQEEMKKLSLLNGGLQEEELSTSLKRSVYIESRIGTSTSFDSGIAGLSSISQCTSSSQLDETSHRWAQPDTAPLPVPANIRFSIWISFFEIYNELLYDLLEPPSQQRKRQTLRLCEDQNGNPYVKDLNWIHVQDAEEAWKLLKVGRKNQSFASTHLNQNSSRSHSIFSIRILHLQGEGDIVPKISELSLCDLAGSERCKDQKSGERLKEAGNINTSLHTLGRCIAALRQNQQNRSKQNLVPFRDSKLTRVFQGFFTGRGRSCMIVNVNPCASTYDETLHVAKFSAIASQLVHAPPMQLGFPSLHSFIKEHSLQVSPSLEKGAKADTGLDDDIENEADISMYGKEELLQVVEAMKTLLLKERQEKLQLEMHLRDEICNEMVEQMQQREQWCSEHLDTQKELLEEMYEEKLNILKESLTSFYQEEIQERDEKIEELEALLQEARQQSVAHQQSGSELALRRSQRLAASASTQQLQEVKAKLQQCKAELNSTTEELHKYQKMLEPPPSAKPFTIDVDKKLEEGQKNIRLLRTELQKLGESLQSAERACCHSTGAGKLRQALTTCDDILIKQDQTLAELQNNMVLVKLDLRKKAACIAEQYHTVLKLQGQVSAKKRLGTNQENQQPNQQPPGKKPFLRNLLPRTPTCQSSTDCSPYARILRSRRSPLLKSGPFGKKY
[1]
  Total (peptides): 1
  Unique (peptides): 1

B2: STOML2 (protein, UniProt Q9UJZ1 29-356, looked up)
Stomatin-like protein 2, …: SSGLPRNTVVLFVPQQEAWVVERMGRFHRILEPGLNILIPVLDRIRYVQSLKEIVINVPEQSAVTLDNVTLQIDGVLYLRIMDPYKASYGVEDPEYAVTQLAQTTMRSELGKLSLDKVFRERESLNASIVDAINQAADCWGIRCLRYEIKDIHVPPRVKESMQMQVEAERRKRATVLESEGTRESAINVAEGKKQAQILASEAEKAEQINQAAGEASAVLAKAKAKAEAIRILAAALTQHNGDAAASLTVAEQYVSAFSKLAKDSNTILLPSNPGDVTSMVAQAMGVYGALTKAPVPGTPDSLSSGSSRDVQGTDASLDEELDRVKMS
[1]
  Total (peptides): 1
  Unique (peptides): 1
[2]
  Total (total peptides): 4
  Unique (unique peptides): 4
[3]
  Total (total peptides): 1
  Unique (unique peptides): 1
[4]
  Total (peptides): 2
  Unique (peptides): 2

B3: PHF10 (protein, UniProt Q8WUB8 2-498, looked up)
PHD finger protein 10: AAAAGPGAALSPRPCDSDPATPGAQSPKDDNEDNSNDGTQPSKRRRMGSGDSSRSCETSSQDLGFSYYPAENLIEYKWPPDETGEYYMLQEQVSEYLGVTSFKRKYPDLERRDLSHKEKLYLRELNVITETQCTLGLTALRSDEVIDLMIKEYPAKHAEYSVILQEKERQRITDHYKEYSQMQQQNTQKVEASKVPEYIKKAAKKAAEFNSNLNRERMEERRAYFDLQTHVIQVPQGKYKVLPTERTKVSSYPVALIPGQFQEYYKRYSPDELRYLPLNTALYEPPLDPELPALDSDGDSDDGEDGRGDEKRKNKGTSDSSSGNVSEGESPPDSQEDSFQGRQKSKDKAATPRKDGPKRSVLSKSVPGYKPKVIPNAICGICLKGKESNKKGKAESLIHCSQCENSGHPSCLDMTMELVSMIKTYPWQCMECKTCIICGQPHHEEEMMFCDMCDRGYHTFCVGLGAIPSGRWICDCCQRAPPTPRKVGRRGKNSKEG
[1]
  Total (peptides): 1
  Unique (peptides): 1
[4]
  Total (peptides): 1
  Unique (peptides): 1

B4: CHTOP (protein, UniProt Q9Y3Y2 2-248, looked up)
Chromatin target of PRMT1 …: AAQSAPKVVLKSTTKMSLNERFTNMLKNKQPTPVNIRASMQQQQQLASARNRRLAQQMENRPSVQAALKLKQSLKQRLGKSNIQARLGRPIGALARGAIGGRGLPIIQRGLPRGGLRGGRATRTLLRGGMSLRGQNLLRGGRAVAPRMGLRRGGVRGRGGPGRGGLGRGAMGRGGIGGRGRGMIGRGRGGFGGRGRGRGRGRGALARPVLTKEQLDNQLDAYMSKTKGHLDAELDAYMAQTDPETND
[1]
  Total (peptides): 1
  Unique (peptides): 1

B5: ZNF281 (protein, UniProt Q9Y2X9 1-895, looked up)
Zinc finger protein 281: MKIGSGFLSGGGGTGSSGGSGSGGGGSGGGGGGGSSGRRAEMEPTFPQGMVMFNHRLPPVTSFTRPAGSAAPPPQCVLSSSTSAAPAAEPPPPPAPDMTFKKEPAASAAAFPSQRTSWGFLQSLVSIKQEKPADPEEQQSHHHHHHHHYGGLFAGAEERSPGLGGGEGGSHGVIQDLSILHQHVQQQPAQHHRDVLLSSSSRTDDHHGTEEPKQDTNVKKAKRPKPESQGIKAKRKPSASSKPSLVGDGEGAILSPSQKPHICDHCSAAFRSSYHLRRHVLIHTGERPFQCSQCSMGFIQKYLLQRHEKIHSREKPFGCDQCSMKFIQKYHMERHKRTHSGEKPYKCDTCQQYFSRTDRLLKHRRTCGEVIVKGATSAEPGSSNHTNMGNLAVLSQGNTSSSRRKTKSKSIAIENKEQKTGKTNESQISNNINMQSYSVEMPTVSSSGGIIGTGIDELQKRVPKLIFKKGSRKNTDKNYLNFVSPLPDIVGQKSLSGKPSGSLGIVSNNSVETIGLLQSTSGKQGQISSNYDDAMQFSKKRRYLPTASSNSAFSINVGHMVSQQSVIQSAGVSVLDNEAPLSLIDSSALNAEIKSCHDKSGIPDEVLQSILDQYSNKSESQKEDPFNIAEPRVDLHTSGEHSELVQEENLSPGTQTPSNDKASMLQEYSKYLQQAFEKSTNASFTLGHGFQFVSLSSPLHNHTLFPEKQIYTTSPLECGFGQSVTSVLPSSLPKPPFGMLFGSQPGLYLSALDATHQQLTPSQELDDLIDSQKNLETSSAFQSSSQKLTSQKEQKNLESSTGFQIPSQELASQIDPQKDIEPRTTYQIENFAQAFGSQFKSGSRVPMTFITNSNGEVDHRVRTSVSDFSGYTNMMSDVSEPCSTRVKTPTSQSYR
[1]
  Total (peptides): 1
  Unique (peptides): 1
[4]
  Total (peptides): 2
  Unique (peptides): 2

B6: HSD17B12 (protein, UniProt Q53GQ0 1-312, looked up)
Very-long-chain 3-oxoacyl-CoA …: MESALPAAGFLYWVGAGTVAYLALRISYSLFTALRVWGVGNEAGVGPGLGEWAVVTGSTDGIGKSYAEELAKHGMKVVLISRSKDKLDQVSSEIKEKFKVETRTIAVDFASEDIYDKIKTGLAGLEIGILVNNVGMSYEYPEYFLDVPDLDNVIKKMININILSVCKMTQLVLPGMVERSKGAILNISSGSGMLPVPLLTIYSATKTFVDFFSQCLHEEYRSKGVFVQSVLPYFVATKLAKIRKPTLDKPSPETFVKSAIKTVGLQSRTNGYLIHALMGSIISNLPSWIYLKIVMNMNKSTRAHYLKKTKKN
[1]
  Total (peptides): 1
  Unique (peptides): 1
[2]
  Total (total peptides): 11
  Unique (unique peptides): 9
[5]
  Total (peptides): 10
  Unique (peptides): 9
